Patent US20190374613A1, “PHARMACEUTICAL COMPOSITIONS OF GLP-1 ANALOGUES” (Biocon Research Limited, priority 2016, published 2019)
At least one structure is not confirmed: it was looked up by name or label, or the drawing left a doubt.

Legend:
[1] = Solubility analysis of Liraglutide drug substance at different pH (visual and HPLC quantitation); format: physicochemical; conditions: solubility at 12 mg/ml
[2] = cited from earlier work

CCCCCCCCCCCCCCCC(=O)N[C@@H](CCC(=O)NCCCC[C@H](NC(=O)[C@H](C)NC(=O)[C@H](C)NC(=O)[C@H](CCC(N)=O)NC(=O)CNC(=O)[C@H](CCC(=O)O)NC(=O)[C@H](CC(C)C)NC(=O)[C@H](Cc1ccc(O)cc1)NC(=O)[C@H](CO)NC(=O)[C@H](CO)NC(=O)[C@@H](NC(=O)[C@H](CC(=O)O)NC(=O)[C@H](CO)NC(=O)[C@@H](NC(=O)[C@H](Cc1ccccc1)NC(=O)[C@@H](NC(=O)CNC(=O)[C@H](CCC(=O)O)NC(=O)[C@H](C)NC(=O)[C@@H](N)Cc1cnc[nH]1)[C@@H](C)O)[C@@H](C)O)C(C)C)C(=O)N[C@@H](CCC(=O)O)C(=O)N[C@@H](Cc1ccccc1)C(=O)N[C@H](C(=O)N[C@@H](C)C(=O)N[C@@H](Cc1c[nH]c2ccccc12)C(=O)N[C@@H](CC(C)C)C(=O)N[C@H](C(=O)N[C@@H](CCCNC(=N)N)C(=O)NCC(=O)N[C@@H](CCCNC(=N)N)C(=O)NCC(=O)O)C(C)C)[C@@H](C)CC)C(=O)O [Liraglutide]
Assay (%) ([1]; pH 6.0): 1% | Assay (%) ([1]; pH 6.5): 14% | Assay (%) ([1]; pH 7): 92% | Assay (%) ([1]; pH 7.5): 90% | Assay (%) ([1]; pH 8): 90% | Assay (%) ([1]; pH 8.5): 94% | Assay (%) ([1]; pH 9): 90% | Assay (%) ([1]; pH 9.5): 96% | pI [2]: around 4.9
